Source: article PMC5966407
Changes are numbered by the printed parent chain. Results are given in words; binding and its absence hold for the method and conditions named. Some binding calls cover weakened binding; strength is not graded here. Sequences can lack the tags named with a protein.

Legend:
Experiment in all cases: two-hybrid; RAD1 variants in pGBKT7, RAD10 and SLX4 in pGADT7; plasmids in opposite mating types, mated to diploids
[1] = target: T1, rad1-E349K in pGBKT7 (two-hybrid fusion) (S. cerevisiae) (UniProt P06777)
T1 sequence: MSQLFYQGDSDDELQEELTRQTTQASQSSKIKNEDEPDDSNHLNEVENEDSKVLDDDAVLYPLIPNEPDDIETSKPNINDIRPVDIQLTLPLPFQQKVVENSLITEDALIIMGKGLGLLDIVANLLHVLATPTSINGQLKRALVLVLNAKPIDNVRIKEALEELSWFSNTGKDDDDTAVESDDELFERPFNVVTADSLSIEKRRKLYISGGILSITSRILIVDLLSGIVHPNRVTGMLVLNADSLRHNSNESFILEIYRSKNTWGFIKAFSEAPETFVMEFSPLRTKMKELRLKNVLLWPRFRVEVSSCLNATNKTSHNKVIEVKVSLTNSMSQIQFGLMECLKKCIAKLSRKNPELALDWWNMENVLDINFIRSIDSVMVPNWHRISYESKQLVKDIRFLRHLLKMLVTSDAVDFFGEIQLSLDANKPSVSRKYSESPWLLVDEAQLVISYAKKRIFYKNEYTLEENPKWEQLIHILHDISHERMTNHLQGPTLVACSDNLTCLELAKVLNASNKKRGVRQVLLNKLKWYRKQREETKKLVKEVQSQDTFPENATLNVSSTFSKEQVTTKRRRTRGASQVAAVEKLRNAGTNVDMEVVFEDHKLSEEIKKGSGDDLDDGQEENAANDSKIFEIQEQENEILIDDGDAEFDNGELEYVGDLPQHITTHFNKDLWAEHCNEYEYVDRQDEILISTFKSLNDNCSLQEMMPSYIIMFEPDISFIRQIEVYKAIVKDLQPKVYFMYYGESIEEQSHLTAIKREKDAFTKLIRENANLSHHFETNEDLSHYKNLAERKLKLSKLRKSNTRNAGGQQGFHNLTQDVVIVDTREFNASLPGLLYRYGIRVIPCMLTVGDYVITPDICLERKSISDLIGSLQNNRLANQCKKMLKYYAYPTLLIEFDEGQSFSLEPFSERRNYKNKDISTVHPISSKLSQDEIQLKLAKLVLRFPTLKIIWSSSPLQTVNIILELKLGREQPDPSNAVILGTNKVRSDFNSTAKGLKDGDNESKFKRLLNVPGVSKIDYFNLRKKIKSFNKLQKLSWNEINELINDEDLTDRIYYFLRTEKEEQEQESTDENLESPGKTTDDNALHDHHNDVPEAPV

[2] = target: T2, rad1-E706K in pGBKT7 (two-hybrid fusion) (S. cerevisiae) (UniProt P06777)
T2 sequence: T1 sequence with K349E, E706K

[3] = target: T3, Rad1 in pGBKT7 (two-hybrid fusion) (S. cerevisiae) (UniProt P06777)
T3 sequence: T1 sequence with K349E

- binding [1]: binds
- binding [2]: binds
- binding [3]: binds
Substance: Slx4 in pGADT7 (two-hybrid fusion) (from UniProt Q12098 1-748)
